US20250249056A1, “CANCER THERAPIES COMPRISING A NUCLEAR EXPORT INHIBITOR AND AN ONCOLYTIC VIRUS” (priority 2022, published 2025)
Like-named read-outs stand apart in the source and are kept apart here. The source gives many values for each of these; only a part stands here.

System: Colo205 cells
Assay type: cell-based, human

O=C(/C=C\n1cnc(-c2cc(C(F)(F)F)cc(C(F)(F)F)c2)n1)NNc1cnccn1 [selinexor]
Differential protein expression, selinexor-treated nucleus vs control nucleus (protein A2ML1 (A8K2U0)): 100
Differential protein expression, selinexor-treated nucleus vs control nucleus (protein ABCC4 (O15439)): 0.359
Differential protein expression, selinexor-treated nucleus vs control nucleus (protein ABCD1 (P33897)): 0.46
Differential protein expression, selinexor-treated nucleus vs control nucleus (protein ABCD3 (P28288)): 0.392
Differential protein expression, selinexor-treated nucleus vs control nucleus (protein ADAM8 (P78325)): 0.319
Differential protein expression, selinexor-treated nucleus vs control nucleus (protein AEBP2 (Q6ZN18)): 0.193
Differential protein expression, selinexor-treated nucleus vs control nucleus (protein AGAP1 (Q9UPQ3)): 100
Differential protein expression, selinexor-treated nucleus vs control nucleus (protein AKR1C4 (P17516)): 0.01
Differential protein expression, selinexor-treated nucleus vs control nucleus (protein ALG6 (Q9Y672)): 0.442
Differential protein expression, selinexor-treated nucleus vs control nucleus (protein APOD (P05090)): 0.01
Differential protein expression, selinexor-treated nucleus vs control nucleus (protein APOO (Q9BUR5)): 0.427
Differential protein expression, selinexor-treated nucleus vs control nucleus (protein APOOL (Q6UXV4)): 0.382
Differential protein expression, selinexor-treated nucleus vs control nucleus (protein ASF1B (Q9NVP2)): 0.353
Differential protein expression, selinexor-treated nucleus vs control nucleus (protein ASNS (P08243)): 0.391
Differential protein expression, selinexor-treated nucleus vs control nucleus (protein ASPRV1 (Q53RT3)): 0.405
Differential protein expression, selinexor-treated nucleus vs control nucleus (protein ATAD3A (Q9NVI7)): 0.426
Differential protein expression, selinexor-treated nucleus vs control nucleus (protein ATAD3B (Q5T9A4)): 0.385
Differential protein expression, selinexor-treated nucleus vs control nucleus (protein ATP6V0A2 (Q9Y487)): 0.375
Differential protein expression, selinexor-treated nucleus vs control nucleus (protein AURKA (O14965)): 0.374
Differential protein expression, selinexor-treated nucleus vs control nucleus (protein BRCA1 (P38398)): 0.396
Differential protein expression, selinexor-treated nucleus vs control nucleus (protein BYSL (Q13895)): 3.24
Differential protein expression, selinexor-treated nucleus vs control nucleus (protein C11orf98 (E9PRG8)): 3.204
Differential protein expression, selinexor-treated nucleus vs control nucleus (protein CA12 (O43570)): 0.172
Differential protein expression, selinexor-treated nucleus vs control nucleus (protein CCNB1 (P14635)): 0.251
Differential protein expression, selinexor-treated nucleus vs control nucleus (protein CCNB2 (O95067)): 0.324
Differential protein expression, selinexor-treated nucleus vs control nucleus (protein CDC5 (Q96FF9)): 0.444
Differential protein expression, selinexor-treated nucleus vs control nucleus (protein CDK1 (P06493)): 0.47
Differential protein expression, selinexor-treated nucleus vs control nucleus (protein CENPF (P49454)): 0.413
Differential protein expression, selinexor-treated nucleus vs control nucleus (protein CHST11 (Q9NPF2)): 0.412
Differential protein expression, selinexor-treated nucleus vs control nucleus (protein CHTF8 (P0CG13)): 0.389
Differential protein expression, selinexor-treated nucleus vs control nucleus (protein CIP2A (Q8TCG1)): 0.192
Differential protein expression, selinexor-treated nucleus vs control nucleus (protein CIPAS39 (Q9H9C1)): 100
Differential protein expression, selinexor-treated nucleus vs control nucleus (protein CKS1B (P61024)): 0.373
Differential protein expression, selinexor-treated nucleus vs control nucleus (protein CLDN4 (O14493)): 0.01
Differential protein expression, selinexor-treated nucleus vs control nucleus (protein CLK1 (P49759)): 100
Differential protein expression, selinexor-treated nucleus vs control nucleus (protein CLPP (Q16740)): 0.407
Differential protein expression, selinexor-treated nucleus vs control nucleus (protein CNL3L (Q9NVN8)): 3.05
Differential protein expression, selinexor-treated nucleus vs control nucleus (protein COMTD1 (Q86VU5)): 0.397
Differential protein expression, selinexor-treated nucleus vs control nucleus (protein COX7A2L (O14548)): 0.434
Differential protein expression, selinexor-treated nucleus vs control nucleus (protein DCP1A (Q9NPI6)): 0.259
Differential protein expression, selinexor-treated nucleus vs control nucleus (protein DDAH2 (O95865)): 100
Differential protein expression, selinexor-treated nucleus vs control nucleus (protein DHRS1 (Q96LJ7)): 0.01
Differential protein expression, selinexor-treated nucleus vs control nucleus (protein DIAPH3 (Q9NSV4)): 0.27
Differential protein expression, selinexor-treated nucleus vs control nucleus (protein DLAT (P10515)): 0.306
Differential protein expression, selinexor-treated nucleus vs control nucleus (protein DMKN (Q6EOU4)): 7.406
Differential protein expression, selinexor-treated nucleus vs control nucleus (protein DOLPP1 (Q86YN1)): 0.459
Differential protein expression, selinexor-treated nucleus vs control nucleus (protein DPP8 (Q6V1X1)): 0.01
Differential protein expression, selinexor-treated nucleus vs control nucleus (protein DVL3 (Q92997)): 7.167
Differential protein expression, selinexor-treated nucleus vs control nucleus (protein ECSIT (Q9BQ95)): 0.457
Differential protein expression, selinexor-treated nucleus vs control nucleus (protein EDC3 (Q96F86)): 0.414
Differential protein expression, selinexor-treated nucleus vs control nucleus (protein EDC4 (Q6P2E9)): 0.263
Differential protein expression, selinexor-treated nucleus vs control nucleus (protein ERG28 (Q9UKR5)): 0.409
Differential protein expression, selinexor-treated nucleus vs control nucleus (protein ERLIN1 (O75477)): 0.433
Differential protein expression, selinexor-treated nucleus vs control nucleus (protein FAM111B (Q6SJ93)): 0.388
Differential protein expression, selinexor-treated nucleus vs control nucleus (protein FANCD2 (Q9BXW9)): 0.354
Differential protein expression, selinexor-treated nucleus vs control nucleus (protein FANCI (Q9NVI1)): 0.422
Differential protein expression, selinexor-treated nucleus vs control nucleus (protein FAR1 (Q8WVX9)): 0.45
Differential protein expression, selinexor-treated nucleus vs control nucleus (protein FDFT1 (P37268)): 0.39
Differential protein expression, selinexor-treated nucleus vs control nucleus (protein FKBP15 (Q5T1M5)): 0.445
Differential protein expression, selinexor-treated nucleus vs control nucleus (protein FLG (P20930)): 0.183
Differential protein expression, selinexor-treated nucleus vs control nucleus (protein GABARAPL2 (P60520)): 2.828
Differential protein expression, selinexor-treated nucleus vs control nucleus (protein GALNT1 (Q10472)): 100
Differential protein expression, selinexor-treated nucleus vs control nucleus (protein GLUL (P15104)): 0.258
Differential protein expression, selinexor-treated nucleus vs control nucleus (protein GOLGA3 (Q08378)): 0.341
Differential protein expression, selinexor-treated nucleus vs control nucleus (protein GPRC5A (Q8NFJ5)): 0.441
Differential protein expression, selinexor-treated nucleus vs control nucleus (protein GTF2IRD1 (Q9UHL9)): 0.312
Differential protein expression, selinexor-treated nucleus vs control nucleus (protein H2B21 (Q16778)): 3.428
Differential protein expression, selinexor-treated nucleus vs control nucleus (protein H2BC1 (Q96A08)): 2.811
Differential protein expression, selinexor-treated nucleus vs control nucleus (protein H2BC3 (P33778)): 3.428
Differential protein expression, selinexor-treated nucleus vs control nucleus (protein H2BC4 (P62807)): 2.923
Differential protein expression, selinexor-treated nucleus vs control nucleus (protein H2BC5 (P58876)): 2.923
Differential protein expression, selinexor-treated nucleus vs control nucleus (protein H2BC11 (P06899)): 3.428
Differential protein expression, selinexor-treated nucleus vs control nucleus (protein H2BC12 (O60814)): 2.923
Differential protein expression, selinexor-treated nucleus vs control nucleus (protein H2BC12L (P57053)): 2.944
Differential protein expression, selinexor-treated nucleus vs control nucleus (protein H2BC13 (Q99880)): 2.923
Differential protein expression, selinexor-treated nucleus vs control nucleus (protein H2BC14 (Q99879)): 2.923
Differential protein expression, selinexor-treated nucleus vs control nucleus (protein H2BC15 (Q99877)): 2.923
Differential protein expression, selinexor-treated nucleus vs control nucleus (protein H2BC18 (Q5QNW6)): 2.923
Differential protein expression, selinexor-treated nucleus vs control nucleus (protein H2BC19P (Q6DRA6)): 3.428
Differential protein expression, selinexor-treated nucleus vs control nucleus (protein H2BC20P (Q6DN03)): 3.428
Differential protein expression, selinexor-treated nucleus vs control nucleus (protein H2BC26 (Q8N257)): 3.428
Differential protein expression, selinexor-treated nucleus vs control nucleus (protein H2BV9 (Q93079)): 2.923
Differential protein expression, selinexor-treated nucleus vs control nucleus (protein H2BV17 (P23527)): 3.428
Differential protein expression, selinexor-treated nucleus vs control nucleus (protein H3-4 (Q16695)): 3.385
Differential protein expression, selinexor-treated nucleus vs control nucleus (protein H3-5 (Q6NXT2)): 3.559
Differential protein expression, selinexor-treated nucleus vs control nucleus (protein H3-7 (Q5TEC6)): 3.559
Differential protein expression, selinexor-treated nucleus vs control nucleus (protein H3C1 (P68431)): 3.511
Differential protein expression, selinexor-treated nucleus vs control nucleus (protein H3C15 (Q71DI3)): 4.057
Differential protein expression, selinexor-treated nucleus vs control nucleus (protein H4C1 (P62805)): 3.248
Differential protein expression, selinexor-treated nucleus vs control nucleus (protein HERPUD1 (Q15011)): 0.01
Differential protein expression, selinexor-treated nucleus vs control nucleus (protein HK2 (P52789)): 0.323
Differential protein expression, selinexor-treated nucleus vs control nucleus (protein HK3 (P52790)): 0.38
Differential protein expression, selinexor-treated nucleus vs control nucleus (protein HSPG2 (P98160)): 0.453
Differential protein expression, selinexor-treated nucleus vs control nucleus (protein INPP4B (O15327)): 100
Differential protein expression, selinexor-treated nucleus vs control nucleus (protein IQGAP3 (Q86VI3)): 0.268
Differential protein expression, selinexor-treated nucleus vs control nucleus (protein JMJD7 (P0C870)): 4.28
Differential protein expression, selinexor-treated nucleus vs control nucleus (protein KIF11 (P52732)): 0.467
Differential protein expression, selinexor-treated nucleus vs control nucleus (protein KIF20A (O95235)): 0.4
Differential protein expression, selinexor-treated nucleus vs control nucleus (protein KIF22 (Q14807)): 0.269
Differential protein expression, selinexor-treated nucleus vs control nucleus (protein KNL1 (Q8NG31)): 0.466
Differential protein expression, selinexor-treated nucleus vs control nucleus (protein KRT9 (P35527)): 3.328
Differential protein expression, selinexor-treated nucleus vs control nucleus (protein KRT16 (P08779)): 3.311
Differential protein expression, selinexor-treated nucleus vs control nucleus (protein KRT71 (Q3SY84)): 4.215
Differential protein expression, selinexor-treated nucleus vs control nucleus (protein KRT73 (Q86Y46)): 4.215
Differential protein expression, selinexor-treated nucleus vs control nucleus (protein KRT74 (Q7RTS7)): 4.215
Differential protein expression, selinexor-treated nucleus vs control nucleus (protein KRT77 (Q7Z794)): 3.514
Differential protein expression, selinexor-treated nucleus vs control nucleus (protein LAMTOR1 (Q6IAA8)): 0.46
Differential protein expression, selinexor-treated nucleus vs control nucleus (protein LAMTOR2 (Q9Y2Q5)): 0.417
Differential protein expression, selinexor-treated nucleus vs control nucleus (protein LARP1B (Q659C4)): 0.472
Differential protein expression, selinexor-treated nucleus vs control nucleus (protein LCN2 (P80188)): 100
Differential protein expression, selinexor-treated nucleus vs control nucleus (protein LEMD2 (Q8NC56)): 0.466
Differential protein expression, selinexor-treated nucleus vs control nucleus (protein LGALS3BP (Q08380)): 0.457
Differential protein expression, selinexor-treated nucleus vs control nucleus (protein LONP2 (Q86WA8)): 0.28
Differential protein expression, selinexor-treated nucleus vs control nucleus (protein LSM14B (Q9BX40)): 0.341
Differential protein expression, selinexor-treated nucleus vs control nucleus (protein LTV1 (Q96GA3)): 8.511
Differential protein expression, selinexor-treated nucleus vs control nucleus (protein LY75 (O60449)): 100
Differential protein expression, selinexor-treated nucleus vs control nucleus (protein MACC1 (Q6ZN28)): 0.333
Differential protein expression, selinexor-treated nucleus vs control nucleus (protein MACROH2A1 (O75367)): 4.8
Differential protein expression, selinexor-treated nucleus vs control nucleus (protein MACROH2A2 (Q9P0M6)): 5.955
Differential protein expression, selinexor-treated nucleus vs control nucleus (protein MAD2L1 (Q13257)): 0.433
Differential protein expression, selinexor-treated nucleus vs control nucleus (protein MCFD2 (Q8NI22)): 100
Differential protein expression, selinexor-treated nucleus vs control nucleus (protein MCU (Q8NE86)): 0.465
Differential protein expression, selinexor-treated nucleus vs control nucleus (protein MICOS10 (Q5TGZ0)): 0.437
Differential protein expression, selinexor-treated nucleus vs control nucleus (protein MISP3 (Q96FF7)): 0.445
Differential protein expression, selinexor-treated nucleus vs control nucleus (protein MMS22L (Q6ZRQ5)): 0.395
Differential protein expression, selinexor-treated nucleus vs control nucleus (protein MRTFB (Q9ULH7)): 0.443
Differential protein expression, selinexor-treated nucleus vs control nucleus (protein MT-ND1 (P03886)): 0.385
Differential protein expression, selinexor-treated nucleus vs control nucleus (protein MT-ND2 (P03891)): 0.403
